Test results from PubChem BioAssay AID1347076 (National Center for Advancing Translational Sciences (NCATS), 2019).
Out of some 400,000 compounds screened, about 13,000 (3.2%) were called active. Inconclusive results, whose numbers are uncertain, are shown with a selection of clear calls. Calls follow the shape of the dose curve; as a rule, active = well fitted cell-killing curve with a large enough effect; inconclusive = small, poorly fitted or top-dose-only effect, or effect the other way; inactive = flat fitted curve, though single readings scatter. Potencies of inconclusive entries are doubtful fits and often do not repeat.
% is scaled to controls: 0 for no effect and ±100 for the full control effect; potency is read from the fitted curve at half-maximal effect.

Assay: qHTS assay for MDR1-selective chemotherapeutics: Primary screen using the drug-selected MDR subline cells KB-V1; also: nearly all actives have a fitted effect of over 60% in size
Conditions: KB-V1 MDR cells viability, CellTiter-Glo, 72 h; activity change, negative = cytotoxicity: at 46.1 µM (top of the series)
How it was run: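 Following 72 h at 37 degrees C with compound, KB-V1 cell viability was read by CellTiter-Glo luminescence, medium being phenol-red-free DMEM plus 10% FBS; concentration-response parameters came from normalized, curve-fitted qHTS data.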
In the case of `COc1ccc(-n2ccnc(SCC(=O)NCc3ccc(C)cc3)c2=O)cc1Cl`, the “activity change, negative = cytotoxicity” value is reported as inactive: 8.52%. With `Cc1cc(-c2n[nH]c(=S)n2Cc2ccco2)nn1C` the Potency was inconclusive: 18.4 µM [rising, single point]. In the case of `COc1ccc(C(C)(O)c2nc(-c3cccc(F)c3)cs2)cc1` (stereo not given), the Potency is reported as inconclusive: 29.1 µM [cytotoxic, single point]. With `Cn1nnnc1SCCCNCc1cc(Br)ccc1OCc1ccccc1` the “activity change, negative = cytotoxicity” value was inactive: -4.97%. For `Cc1nn(Cc2ccccc2)c(C)c1NC(=O)c1ccc([N+](=O)[O-])cc1[N+](=O)[O-]`, the activity change, negative = cytotoxicity was inconclusive: -97.2%. For `Cc1cc(C)nc(N2CCCC(C(=O)Nc3ccc4c(c3)OCCO4)C2)n1` (stereo not given), the Potency was active: 7.31 µM. For `COc1ccncc1-c1ccccc1C1=CC(=O)CC(C)(C)C1=O`, the “activity change, negative = cytotoxicity” value was inactive: 6.78%. In the case of `NC(=O)c1ccsc1NC(=O)c1ccc([N+](=O)[O-])o1`, the Potency is reported as inconclusive: 29.1 µM [cytotoxic, partial curve, poor fit]. In the case of `Clc1ccc2nc(C3CCN(Cc4ccccc4)CC3)[nH]c2c1`, the Potency is reported as inconclusive: 23.1 µM [cytotoxic, single point]. In the case of `CCN(CC)c1ccc(C(=O)OCc2c(C)noc2C)cc1`, the Potency is reported as inconclusive: 29.1 µM [cytotoxic, single point]. For `O=C(O)c1cccc(N2C(=O)C=CC2=O)c1`, the “activity change, negative = cytotoxicity” value was inactive: 11%. In the case of `COC(=O)Cc1ccc(NC(=S)NNC(=O)c2ccccc2Br)cc1`, the Potency is reported as inconclusive: 20.6 µM [cytotoxic, partial curve]. In the case of `COCCSc1ccccc1C(=O)N1CCN(Cc2ccccc2)CC1`, the Potency is reported as inconclusive: 13 µM [cytotoxic, single point]. For `O=C(c1cccc(S(=O)(=O)N2CCOCC2)c1)N1CCN(Cc2ccc3c(c2)OCO3)CC1`, the Potency was inconclusive: 18.4 µM [cytotoxic, partial curve]. In the case of `CCOC(=O)N=Nc1c(O)n(CC(=O)OC)c2ccccc12`, the “activity change, negative = cytotoxicity” value is reported as inactive: -13.1%. With `Cc1cc(C)cc(NS(=O)(=O)c2ccc3[nH]cc(C(=O)N4CCCCC4)c(=O)c3c2)c1` the “activity change, negative = cytotoxicity” value was inactive: 6.52%. With `Cc1oc(-c2ccc(Cl)cc2)nc1CN1CCC(C(=O)NCCCN2CCOCC2)CC1` the “activity change, negative = cytotoxicity” value was inactive: -23%. With `O=C(COC(=O)c1cc([N+](=O)[O-])ccc1N1CCOCC1)Nc1c(Cl)cccc1C(F)(F)F` the Potency was inconclusive: 14.6 µM [cytotoxic, single point]. With `COC(=O)[C@]12CCCCC=C1N(Cc1ccc(Cl)cc1Cl)C(=O)[C@H](CC(=O)NCCCN1CCCC1=O)C2` the Potency was inconclusive: 29.1 µM [cytotoxic, single point]. With `COc1cc(CN2CCN(c3cccc(Cl)c3)CC2)cc(OC)c1OC` the Potency was active: 2.31 µM. For `Cc1ccccc1N1CCN(Cc2nc(Cc3ccccc3)no2)CC1`, the Potency was inconclusive: 16.4 µM [cytotoxic, partial curve]. For `Cc1cccnc1C1=NOC(Cc2ccccc2)C(=O)N1Cc1ccccc1F` (stereo not given), the Potency was inconclusive: 16.4 µM [cytotoxic, partial curve]. For `Cc1cc(C(=O)COC(=O)c2ccc(N)c([N+](=O)[O-])c2)c(C)n1-c1ccc2c(c1)OCO2`, the Potency was inconclusive: 29.1 µM [cytotoxic, single point]. For `O=C(/C=C/c1ccco1)N1CCCC(c2ccccc2)C1` (stereo not given), the “activity change, negative = cytotoxicity” value was inactive: -12.7%. In the case of `CN(C)C=Nc1nonc1-c1ccc(Cl)cc1`, the “activity change, negative = cytotoxicity” value is reported as inactive: 8.42%. For `COc1ccc(/C=C/C(=O)c2c(O)c(OC)c3occc3c2OC)cc1`, the Potency was inconclusive: 20.6 µM [cytotoxic, single point]. With `CCn1c(=O)c(C(=O)NCc2ccccc2Cl)c(O)c2ccccc21` the Potency was inconclusive: 11.6 µM [cytotoxic, partial curve]. For `CN(CC(=O)Nc1cccc(F)c1)C(=O)CSc1nc2ccccc2s1`, the “activity change, negative = cytotoxicity” value was inactive: -21.7%. With `O=C(Nc1ccc(S(=O)(=O)NC2=NCCCCC2)cc1)c1cc(F)c(F)cc1Cl` the Potency was inconclusive: 8.2 µM [cytotoxic, partial curve]. For `O=C(c1ccc(-c2cccc(C(F)(F)F)c2)o1)N1CCCCCCC1`, the Potency was inconclusive: 20.6 µM [cytotoxic, single point]. For `Cc1ccc(-n2nc(C(=O)NC(C)C)c(=O)n(C)c2=O)cc1`, the “activity change, negative = cytotoxicity” value was inactive: -2.44%. For `CC(=O)C1=CCC(c2ccccc2)N(S(=O)(=O)c2ccc(C)cc2)C1` (stereo not given), the “activity change, negative = cytotoxicity” value was inactive: 4.38%. In the case of `CCN(Cc1ccccc1)C(=O)c1ccc(N(C)S(=O)(=O)c2ccc(C)cc2)cc1`, the Potency is reported as inconclusive: 23.1 µM [cytotoxic, single point]. In the case of `CCOC(=O)/C(=N\Nc1ccccc1Cl)N1CCN(c2ccccc2OC)CC1`, the “activity change, negative = cytotoxicity” value is reported as inactive: -9.77%. In the case of `CCCCn1c(SCC(=O)c2ccc(OC)cc2OC)nc2cc(S(N)(=O)=O)ccc21`, the Potency is reported as active: 18.4 µM. In the case of `C=CCSc1nnc(NC(=O)CSCc2c(C)noc2C)s1`, the Potency is reported as inconclusive: 0.0073 µM [cytotoxic, full curve, poor fit]. For `Cc1ccc2ccc(C(Nc3ccccc3)c3ccc(Cl)cc3)c(O)c2n1` (stereo not given), the Potency was inconclusive: 8.2 µM [cytotoxic, partial curve]. In the case of `CS(=O)(=O)N(Cc1ccc(C(=O)NCCSCc2ccco2)cc1)c1ccccc1`, the Potency is reported as inconclusive: 16.4 µM [cytotoxic, partial curve]. In the case of `CCCCNC(=O)C[C@@H]1C[C@@]2(C(=O)OC)CC(C)(C)CC=C2N(Cc2cccc3ccccc23)C1=O`, the Potency is reported as inconclusive: 14.6 µM [cytotoxic, partial curve]. With `C=CCn1c(SCc2csc(-c3ccc(C)cc3)n2)nnc1-c1ccccc1OC` the Potency was active: 13 µM. In the case of `COc1ccc(CC(=O)Nc2ccc(/C(C)=N\NC(=O)c3ccc(Br)o3)cc2)cc1`, the “activity change, negative = cytotoxicity” value is reported as inactive: -14.9%. In the case of `COc1ccccc1NS(=O)(=O)c1cc(NC(=O)c2cccs2)ccc1N1CCCC1`, the Potency is reported as inconclusive: 6.51 µM [cytotoxic, partial curve]. In the case of `Clc1ccc(COc2ccccc2-c2ccnc3ncnn23)cc1`, the Potency is reported as inconclusive: 18.4 µM [cytotoxic, single point]. With `COc1ccc(CC2(CO)CCN(Cc3cnn(-c4ccc(F)cc4)c3)CC2)cc1` the Potency was inconclusive: 8.2 µM [cytotoxic, partial curve, poor fit]. For `Cc1noc(-c2ccc(N3CCCCC3C)c([N+](=O)[O-])c2)n1` (stereo not given), the Potency was inconclusive: 29.1 µM [cytotoxic, single point]. For `CCOC(=O)NN=C1c2ccccc2-c2ccccc21`, the Potency was inconclusive: 25.9 µM [cytotoxic, single point]. With `Cc1ccc(C(=O)N/N=C/c2ccc(-c3ccc(Br)cc3[N+](=O)[O-])o2)o1` the “activity change, negative = cytotoxicity” value was inactive: -19.3%. With `Cc1nc(N2CCOCC2)sc1C=O` the “activity change, negative = cytotoxicity” value was inactive: 15.4%. With `COc1ccc(C2=Cc3ccccc3C(CC(=O)C3CC3)N2c2ccc(-c3cc(OC)c(OC)c(OC)c3)cc2)cc1` (stereo not given) the “activity change, negative = cytotoxicity” value was inactive: -9.42%. For `COc1ccc(/C=C2/CCc3ccccc3C2=O)cc1CN1CCOCC1`, the Potency was inconclusive: 3.66 µM [cytotoxic, full curve]. For `Cc1ccccc1-c1cc2nc(NCc3ccc(N(C)C)cc3)n(C)c(=O)c2s1`, the Potency was inconclusive: 3.26 µM [cytotoxic, full curve]. With `O=C(Cn1c(CN2CCCCC2)nc2ccccc2c1=O)NCc1ccco1` the Potency was inconclusive: 8.2 µM [cytotoxic, partial curve, poor fit]. With `Cc1ccc(NC(=O)CCCCCN2C(=O)c3ccccc3C2=O)nc1` the “activity change, negative = cytotoxicity” value was inactive: -30.4%. For `O=c1c(Cl)c(Cl)cnn1Cc1nnc(-c2ccccc2Br)o1`, the Potency was inconclusive: 1.84 µM [cytotoxic, partial curve, poor fit]. In the case of `CN(N=O)c1ccc(C=C2c3ccccc3-c3ccccc32)cc1`, the “activity change, negative = cytotoxicity” value is reported as inactive: 3.84%. With `CCc1nnc(NC(=O)CSc2nccn2Cc2ccccc2)s1` the Potency was inconclusive: 32.6 µM [cytotoxic, single point]. In the case of `CSc1nc(N)nc(SCC(=O)OC(C)C)c1C#N`, the Potency is reported as inconclusive: 20.6 µM [cytotoxic, single point]. With `Cc1ccc(C(=O)N2CC(=O)Nc3ccc(Br)cc3C2c2ccc(F)cc2)cc1C` (stereo not given) the Potency was inconclusive: 14.6 µM [cytotoxic, partial curve, poor fit]. In the case of `CCOC(=O)N1CCN(C/C(C)=C/c2ccccc2)CC1`, the Potency is reported as active: 14.6 µM. With `O=C(c1ccncc1)c1ccc(NS(=O)(=O)c2ccc(Br)s2)cc1` the Potency was inconclusive: 29.1 µM [cytotoxic, single point]. For `COc1ccccc1C(=O)Nc1ccc2c(c1)nc1n2CCSC1`, the Potency was inconclusive: 0.651 µM [cytotoxic, full curve, poor fit]. With `CC(O)(c1cccc(F)c1)c1nc(-c2cc3ccccc3o2)cs1` (stereo not given) the “activity change, negative = cytotoxicity” value was inactive: 9.13%. In the case of `O=C(NC(Nc1nc2ccc([N+](=O)[O-])cc2s1)(C(F)(F)F)C(F)(F)F)c1cccnc1`, the Potency is reported as inconclusive: 3.26 µM [cytotoxic, full curve, poor fit]. For `CCC(Cc1ccccc1)NS(=O)(=O)c1ccc2c(c1)NC(=O)C(C)S2` (stereo not given), the Potency was inconclusive: 29.1 µM [cytotoxic, single point]. In the case of `COc1cc2sc(-c3ccc(S(C)(=O)=O)cc3)c(C(=O)NCCCCO)c2cc1OC`, the “activity change, negative = cytotoxicity” value is reported as inactive: 0%. In the case of `CCOn1c(=O)c(-c2cccc(Br)c2)[n+]([O-])c2ccccc21`, the “activity change, negative = cytotoxicity” value is reported as inactive: 12.6%. For `CCN1CCN(C(=O)Cn2c(-c3cccs3)cc3cc(Cl)ccc32)CC1`, the “activity change, negative = cytotoxicity” value was inactive: 6.37%. With `CCCCCOc1ccc(NC(=O)C(=O)NCCCn2ccnc2)cc1` the Potency was inconclusive: 18.4 µM [cytotoxic, partial curve, poor fit]. For `Cc1ccc(C)c(N2CCN(C(=O)CCc3c(C)nc4c(c3C)c(=O)n(C)c(=O)n4C)CC2)c1`, the Potency was inconclusive: 20.6 µM [rising, partial curve, poor fit]. With `COc1ccc(C)cc1NC(=O)C1CCCN1S(=O)(=O)c1ccc2c(c1)CCC(=O)N2` (stereo not given) the Potency was inconclusive: 14.6 µM [rising, partial curve].
